No constants are given. Whether binding was seen depends on the method and setting. Binding seen in cells or lysates may run through a third protein. Some binding calls cover weakened binding; strength is not graded here.
Biological target: Lamin A (human (endogenous in PDLSCs)) (UniProt P02545)
Test: co-IP; endogenous proteins from control and compressive-force-stressed PDLSCs; lysis buffer with 0.5% NP40, lysate pre-cleared with protein A beads, precipitated with a specific antibody and protein A beads, extensive washing, western blot; which protein was precipitated not given

By UniProt entry, the sequences of proteins in these tests, tags left out. Residues count along the entry.
UniProt P02545, residues 1-646: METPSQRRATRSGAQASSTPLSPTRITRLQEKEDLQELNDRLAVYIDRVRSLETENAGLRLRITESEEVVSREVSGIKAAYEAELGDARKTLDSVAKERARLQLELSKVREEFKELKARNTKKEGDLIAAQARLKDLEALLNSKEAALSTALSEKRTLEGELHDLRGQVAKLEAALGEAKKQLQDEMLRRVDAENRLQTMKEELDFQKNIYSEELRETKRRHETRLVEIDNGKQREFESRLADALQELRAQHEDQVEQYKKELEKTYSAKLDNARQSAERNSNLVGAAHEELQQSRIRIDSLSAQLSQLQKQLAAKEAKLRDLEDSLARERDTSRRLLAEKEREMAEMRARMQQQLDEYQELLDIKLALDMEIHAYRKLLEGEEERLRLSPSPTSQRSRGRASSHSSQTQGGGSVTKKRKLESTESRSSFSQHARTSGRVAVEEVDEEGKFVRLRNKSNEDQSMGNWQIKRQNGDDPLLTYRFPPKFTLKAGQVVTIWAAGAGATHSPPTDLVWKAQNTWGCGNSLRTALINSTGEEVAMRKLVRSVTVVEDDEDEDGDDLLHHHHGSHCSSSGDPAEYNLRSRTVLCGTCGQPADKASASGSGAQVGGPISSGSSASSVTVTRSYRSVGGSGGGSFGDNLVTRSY

B1: retinoblastoma protein (RB) (protein, UniProt P06400 1-928)
chain: MPPKTPRKTAATAAAAAAEPPAPPPPPPPEEDPEQDSGPEDLPLVRLEFEETEEPDFTALCQKLKIPDHVRERAWLTWEKVSSVDGVLGGYIQKKKELWGICIFIAAVDLDEMSFTFTELQKNIEISVHKFFNLLKEIDTSTKVDNAMSRLLKKYDVLFALFSKLERTCELIYLTQPSSSISTEINSALVLKVSWITFLLAKGEVLQMEDDLVISFQLMLCVLDYFIKLSPPMLLKEPYKTAVIPINGSPRTPRRGQNRSARIAKQLENDTRIIEVLCKEHECNIDEVKNVYFKNFIPFMNSLGLVTSNGLPEVENLSKRYEEIYLKNKDLDARLFLDHDKTLQTDSIDSFETQRTPRKSNLDEEVNVIPPHTPVRTVMNTIQQLMMILNSASDQPSENLISYFNNCTVNPKESILKRVKDIGYIFKEKFAKAVGQGCVEIGSQRYKLGVRLYYRVMESMLKSEEERLSIQNFSKLLNDNIFHMSLLACALEVVMATYSRSTSQNLDSGTDLSFPWILNVLNLKAFDFYKVIESFIKAEGNLTREMIKHLERCEHRIMESLAWLSDSPLFDLIKQSKDREGPTDHLESACPLNLPLQNNHTAADMYLSPVRSPKKKGSTTRVNSTANAETQATSAFQTQKPLKSTSLSLFYKKVYRLAYLRLNTLCERLLSEHPELEHIIWTLFQHTLQNEYELMRDRHLDQIMMCSMYGICKVKNIDLKFKIIVTAYKDLPHAVQETFKRVLIKEEEYDSIIVFYNSVFMQRLKTNILQYASTRPPTLSPIPHIPRSPYKFPSSPLRIPGGNIYISPLKSPYKISEGLPTPTKMTPRSRILVSIGESFGTSEKFQKINQMVCNSDRVLKRSAEGSNPPKPLKKLRFDIEGSDEADGSKHLPGESKFQQKLAEMTSTRTRMQKQKMNDSMDTSNKEEK
- binding: binds
